Source: article PMC11540318
No constants are given. Whether binding was seen depends on the method and setting. Binding seen in cells or lysates may run through a third protein. A yes stands for co-enrichment or nearness to the bait. Other partners may have been found.

Chains of the proteins cited; added tags and fusions are not shown.
UniProt P49657: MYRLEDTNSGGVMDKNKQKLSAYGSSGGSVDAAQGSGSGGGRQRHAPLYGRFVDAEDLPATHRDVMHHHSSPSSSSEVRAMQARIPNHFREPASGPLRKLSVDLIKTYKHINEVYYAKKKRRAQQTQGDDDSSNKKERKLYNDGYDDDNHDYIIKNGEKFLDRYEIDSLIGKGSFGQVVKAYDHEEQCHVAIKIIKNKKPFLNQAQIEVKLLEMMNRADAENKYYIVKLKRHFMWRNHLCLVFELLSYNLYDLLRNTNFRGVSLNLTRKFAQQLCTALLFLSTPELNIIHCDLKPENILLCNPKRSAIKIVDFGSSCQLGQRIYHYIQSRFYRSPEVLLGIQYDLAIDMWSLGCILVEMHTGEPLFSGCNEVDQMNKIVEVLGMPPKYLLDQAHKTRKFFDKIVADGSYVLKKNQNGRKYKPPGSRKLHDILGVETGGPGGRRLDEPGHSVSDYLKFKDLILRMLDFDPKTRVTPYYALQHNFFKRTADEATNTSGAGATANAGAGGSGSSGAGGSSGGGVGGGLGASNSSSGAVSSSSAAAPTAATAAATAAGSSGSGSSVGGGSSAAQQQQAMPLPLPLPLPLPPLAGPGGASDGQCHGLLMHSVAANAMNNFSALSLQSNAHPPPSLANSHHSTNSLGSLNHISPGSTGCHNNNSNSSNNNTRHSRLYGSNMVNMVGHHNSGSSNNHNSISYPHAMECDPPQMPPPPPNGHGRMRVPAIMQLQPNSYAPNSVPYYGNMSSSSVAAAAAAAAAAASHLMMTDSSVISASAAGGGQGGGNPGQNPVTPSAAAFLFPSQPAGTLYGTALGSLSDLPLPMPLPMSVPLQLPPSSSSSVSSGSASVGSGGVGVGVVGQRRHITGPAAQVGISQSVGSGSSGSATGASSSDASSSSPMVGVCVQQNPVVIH

Biological target: Mnb-TagRFP-T (Minibrain, endogenously tagged) (Drosophila (endogenous in embryos)) (UniProt P49657)
Experiment: affinity purification with mass spectrometry; Lysate of embryos of the Mnb-TagRFP-T line (yw as control) on RFP-trap agarose beads, 2 h at 4°C, lysis buffer with 0.5% IGEPAL, 125 mM NaCl, pH 7.5; nanoLC-MS/MS; SAINT score above 0.8 counted as interactor

B1: Ral interacting protein (Rlip), endogenous (protein, UniProt Q9VDG2 1-625)
chain: MDFDSPEEKEFPGLYASEAADAKSRKSKEESDFSEDHDHSKKDLLIGRRKDKKEKGKDRGYAALEGESSPEEELDTKSPSKSKKSKTFKFTSSKSKEKREKSRDKSEKDSKHAEEEPSVSHKVKEKERDKEKDRDEPKKKDKEEKRKEKDKKADKKDKKDKKSKQLSQQQDDVSAAEEVLALGYPVFGVSVSLATERSRCHDGVDIPLVVRDCIDFLQDHLKCEQIYKIEPIKTRLMHFKRLYNNREHDSAVDELNLPTACSLLKLFLRELPEPLLTTDLVARFEEVASHPKVTTQQAELQQLLEQLPKCNRTLLAWVLLHFDAVIQQERHNKLNAQSLAMLLSPTLQMSHRLMVALLCHCNNLFADVQLIKYVPPLTSTSPKLPDTPEDIQTELRKQDSLLSQIHSEMNAGFITKKREEQLWEVQRIITQLKRKLRTFEKKQEKTAEEVDNSSSAPPAVASEDTTDSKPAGTPAVSTNNSISQEEPKTDTLTPKDAPNDFTIDPSTGFILLPKSNPHRENLLRLQIEYDELMEWQNELKARIVAERNEVYRLKQLYEQQSINSQMASLASGSQAPPESDYERIIEHYTRENALLEHKKNMLGMELKEERRACIALQVELRLQQF
binding: binds
